Measured values: PubChem BioAssay AID1745846 (National Center for Advancing Translational Sciences (NCATS), 2022)
The campaign covered roughly 1,400 compounds. About 30 (2%) were called active. Another 15% or so got no clear call; they are omitted. The call rests on the fitted dose curve; in most records, active means well fitted inhibition curve with a large enough effect; inconclusive means small, poorly fitted or top-dose-only effect; inactive means flat fitted curve, though single readings scatter. This is one part of the list.

assay: Firefly Luciferase Counterscreen for Inhibitors of ATXN expression; details: luminescence; series mostly up to 57.5 µM; activity change, negative = inhibition: at the top concentration
Outline: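 Recombinant firefly luciferase at 10 nM final in 50 mM Tris pH 7.5, 10 mM MgCl2, 0.05% BSA, 0.01% Tween20 with substrate; compounds up to 57 uM final, 10 min room temperature, end-point luminescence. Buffer-only wells define 100% inhibition.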
On the % scale 0 is the no-effect control and ±100 the full control effect.

Structure (SMILES)	activity change, negative = inhibition
COC1C=CC=C(C)C(=O)NC2=CC(=O)C(N)=C(CC(C)CC(OC)C(O)C(C)C=C(C)C1OC(N)=O)C2=O (stereo unspecified)	inactive: -4.17%
CCOC(=O)C1CCN(C(=O)c2c(C)oc3c2C(=O)c2ccccc2C3=O)CC1	inactive: -2.65%
O=c1cc(Nc2ccc3c(c2)OCCO3)[nH]c(=O)n1-c1ccc(Br)cc1	inactive: -10.6%
CC(=O)Nc1cccc(-c2ccnc3c2CC(C)(C(=O)Nc2ccc(Cl)cc2)O3)c1 (stereo unspecified)	inactive: -2.94%
O=[N+]([O-])c1c(Nc2ccccn2)cc(Cl)c2nonc12	inactive: -10.4%
CCc1nc2c(OCCOc3ccc(F)cc3)cccn2c1N(C=O)Cc1ccc(OC)cc1	inactive: -0.926%
CN(CC(=O)NCc1ccc(F)cc1)CC(=O)Nc1ccc(Cl)c(C(F)(F)F)c1	inactive: -3.92%
COc1cccc(C(NC(C)=O)c2ccc3cccnc3c2O)c1 (stereo unspecified)	inactive: 0.801%
CN(C)CCOc1nc(-c2ccccc2)nc2c1oc1ccccc12	inactive: -2.62%
CCOP(=O)(OCC)C(Cc1ccccc1)N=C(c1ccccc1)c1ccccc1 (stereo unspecified)	inactive: -1.67%
O=C(CCCN1C(=O)/C(=C/c2ccccc2Cl)SC1=S)NNC(=O)c1ccc(Cl)cc1Cl	inactive: 4.34%
CCOC(=O)C1=CCN(S(=O)(=O)c2ccc(C)cc2)C1c1cccc(Cl)c1 (stereo unspecified)	inactive: -2.12%
Oc1c(CN2CCCCC2)ccc2cccnc12	inactive: 2.91%
NS(=O)(=O)c1ccc(N2N=C(c3ccccc3)CC2c2cccc(Br)c2)cc1 (stereo unspecified)	inactive: -3.13%
Cc1cccc(C(=O)N/N=C2\CS(=O)(=O)N(C)c3ccsc32)c1	inactive: -9.38%
Cc1nn(Cc2ccc(Cl)cc2)c(C)c1NC(=O)c1noc2c1CCc1ccccc1-2	inactive: -2.34%

Structure (SMILES)	activity change, negative = inhibition
COc1cc(C#Cc2c(-c3cncn3C)n(C)c3ccc(-c4cc(OC)c(OC)c(OC)c4)cc23)cc(OC)c1	inactive: -8.96%
Cn1c(CCN2CCN(c3ccccn3)CC2)nc2cc(NC(=O)COc3ccc(Cl)cc3)ccc21	inactive: -7.6%
O=C(Nc1ccc(OCC(F)(F)C(F)F)c(C(F)(F)F)c1)c1ccc(Cl)cc1	inactive: -10.6%
CCOC(=O)c1c(-c2ccccc2)oc2ccc(OCC(=O)NN)cc12	inactive: -4.12%
COc1cc(C=CC(=O)c2ccccc2)cc(OC)c1OC	inactive: -13%
Cc1ccc2c(Cl)cc(Cl)c(O)c2n1	inactive: -14.1%
O=C(NCc1cc(C(F)(F)F)ccc1Cl)c1cccc2c1C(=O)c1ccc(N3CCC(N4CCCCC4)CC3)cc1S2(=O)=O	inactive: -8.15%
CCc1nc2ccccc2c(C(=O)OCC(=O)Nc2cccc(S(=O)(=O)NC3=NCCCCC3)c2)c1C	inactive: -8.93%
CCn1cc(C(=O)NCc2cccc(F)c2)c(=O)c2cc(F)c(N3CCN(C(=O)c4ccco4)CC3)cc21	inactive: -6.14%
COc1cccc(NC(=O)/C=C/c2ccc(S(=O)(=O)N3CCOCC3)cc2)c1	inactive: -7.17%
Cc1ccc(-c2cc(C(=O)N/N=C/c3ccccc3O)n[nH]2)o1	inactive: -9.4%
Cc1ccc(C(NC(=O)C2CCN(Cc3ccc(Cl)c(Cl)c3)CC2)c2ccccn2)cc1 (stereo unspecified)	inactive: -2.96%
NC(=O)N/N=C/c1c(O)ccc2oc3c(c12)CCCC3	inactive: -6.32%
Cc1nc(-c2c(C(F)(F)F)noc2-c2ccc(O)cc2O)cs1	inactive: -4.16%
COc1ccc(CNC(=O)c2ccc(-c3cccnc3)c3ccoc23)cc1OC	inactive: -13.5%

Copied from the entries so far, 2 compounds:
Structure (SMILES)	activity change, negative = inhibition
COc1cc(C#Cc2c(-c3cncn3C)n(C)c3ccc(-c4cc(OC)c(OC)c(OC)c4)cc23)cc(OC)c1	inactive: -8.96%
Cn1c(CCN2CCN(c3ccccn3)CC2)nc2cc(NC(=O)COc3ccc(Cl)cc3)ccc21	inactive: -7.6%
